These results are taken from PMC13492119.

Chains of the proteins cited; added tags and fusions are not shown.
UniProt P04147: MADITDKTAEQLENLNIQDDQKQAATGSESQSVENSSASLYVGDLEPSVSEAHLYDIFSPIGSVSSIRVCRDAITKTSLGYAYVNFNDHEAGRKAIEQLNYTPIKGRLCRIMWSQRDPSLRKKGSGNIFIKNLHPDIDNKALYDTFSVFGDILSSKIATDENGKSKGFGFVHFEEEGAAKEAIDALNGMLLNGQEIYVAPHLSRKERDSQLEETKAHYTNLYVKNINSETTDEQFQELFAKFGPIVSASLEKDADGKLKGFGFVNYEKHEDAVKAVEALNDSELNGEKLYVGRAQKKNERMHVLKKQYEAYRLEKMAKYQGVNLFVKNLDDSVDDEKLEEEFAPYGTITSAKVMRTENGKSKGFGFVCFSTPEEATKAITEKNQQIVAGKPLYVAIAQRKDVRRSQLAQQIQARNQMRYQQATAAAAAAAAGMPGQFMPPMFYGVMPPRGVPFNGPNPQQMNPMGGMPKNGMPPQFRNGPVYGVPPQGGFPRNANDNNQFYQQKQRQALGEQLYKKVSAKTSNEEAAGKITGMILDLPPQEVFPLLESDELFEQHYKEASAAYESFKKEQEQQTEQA

The target in test [1] is T1, Puf3-Tap-tag (S. cerevisiae) (UniProt Q07807).
T1 sequence: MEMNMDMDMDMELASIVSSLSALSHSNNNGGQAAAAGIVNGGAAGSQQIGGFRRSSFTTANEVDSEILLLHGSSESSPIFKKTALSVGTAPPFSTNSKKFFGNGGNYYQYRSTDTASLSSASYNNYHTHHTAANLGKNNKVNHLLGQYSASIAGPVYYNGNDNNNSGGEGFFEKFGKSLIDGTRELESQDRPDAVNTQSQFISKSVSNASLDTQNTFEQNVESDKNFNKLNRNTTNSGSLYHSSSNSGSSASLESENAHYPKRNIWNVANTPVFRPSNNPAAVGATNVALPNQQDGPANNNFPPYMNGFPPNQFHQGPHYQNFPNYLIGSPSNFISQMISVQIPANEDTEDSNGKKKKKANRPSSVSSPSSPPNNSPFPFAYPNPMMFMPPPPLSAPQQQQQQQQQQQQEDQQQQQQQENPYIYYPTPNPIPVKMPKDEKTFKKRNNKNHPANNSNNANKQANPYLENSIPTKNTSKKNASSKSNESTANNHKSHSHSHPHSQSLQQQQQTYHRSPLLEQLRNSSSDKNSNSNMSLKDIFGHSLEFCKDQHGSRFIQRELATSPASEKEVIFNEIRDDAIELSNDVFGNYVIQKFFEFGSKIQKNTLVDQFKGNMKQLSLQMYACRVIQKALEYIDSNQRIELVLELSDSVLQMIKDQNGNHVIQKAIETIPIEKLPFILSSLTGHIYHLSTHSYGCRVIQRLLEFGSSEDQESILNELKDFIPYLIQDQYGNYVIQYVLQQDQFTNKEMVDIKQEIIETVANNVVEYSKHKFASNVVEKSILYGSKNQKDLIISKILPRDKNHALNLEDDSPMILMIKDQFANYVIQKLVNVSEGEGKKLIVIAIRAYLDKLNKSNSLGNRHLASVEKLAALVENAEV
Briefly: affinity purification with mass spectrometry; Puf3-TAP tagged in the not4Δ cells (condition 2); wild type and not4Δ cells mixed and broken together; IgG coupled magnetic beads, 2 h at 4°C, 20 mM Hepes pH 7.4, 100 mM KOAc, 0.5% Triton X-100 washes; ribonuclease inhibitor in the lysis buffer; compared with untagged control and with condition 1.

The target in test [2] is T1, Puf3-Tap-tag (S. cerevisiae). Put plainly: affinity purification with mass spectrometry; Puf3-TAP tagged in the wild type cells (condition 1); wild type and not4Δ cells mixed and broken together; IgG coupled magnetic beads, 2 h at 4°C, 20 mM Hepes pH 7.4, 100 mM KOAc, 0.5% Triton X-100 washes; ribonuclease inhibitor in the lysis buffer; compared with untagged control and with condition 2.

These are yes or no findings as the source states them, for the method shown. In cells and extracts the contact can be indirect. A yes stands for co-enrichment or nearness to the bait. Other partners may have been found. Sequences can lack the tags named with a protein.

“poly(A) binding protein Pab1 (from UniProt P04147 1-577)”: the binding entry in test [1] and in test [2] was “binds” each time.

B1: Hrr25 kinase (enzyme, UniProt P29295 1-494)
chain: MDLRVGRKFRIGRKIGSGSFGDIYHGTNLISGEEVAIKLESIRSRHPQLDYESRVYRYLSGGVGIPFIRWFGREGEYNAMVIDLLGPSLEDLFNYCHRRFSFKTVIMLALQMFCRIQYIHGRSFIHRDIKPDNFLMGVGRRGSTVHVIDFGLSKKYRDFNTHRHIPYRENKSLTGTARYASVNTHLGIEQSRRDDLESLGYVLIYFCKGSLPWQGLKATTKKQKYDRIMEKKLNVSVETLCSGLPLEFQEYMAYCKNLKFDEKPDYLFLARLFKDLSIKLEYHNDHLFDWTMLRYTKAMVEKQRDLLIEKGDLNANSNAASASNSTDNKSETFNKIKLLAMKKFPTHFHYYKNEDKHNPSPEEIKQQTILNNNAASSLPEELLNALDKGMENLRQQQPQQQVQSSQPQPQPQQLQQQPNGQRPNYYPEPLLQQQQRDSQEQQQQVPMATTRATQYPPQINSNNFNTNQASVPPQMRSNPQQPPQDKPAGQSIWL
In the case of B1, the binding entry in test [1] and in test [2] was “binds” throughout.
